Test results published in PubChem BioAssay AID588590 (National Center for Advancing Translational Sciences (NCATS), 2011).
Hit rate of the full screen: of about 390,000 compounds, about 4,000 (1%) were called active. Inconclusive results, whose numbers are uncertain, are shown with a selection of clear calls. Calls come from the whole dose curve; as a rule, active = well fitted inhibition curve with a large enough effect; inconclusive = small, poorly fitted or top-dose-only effect, or another doubt; inactive = no such curve, though single readings can be large or run the other way. Where the call is inconclusive, the potency comes from a doubtful curve fit.

Amino acid sequences for entries named in this document (tags omitted). A change or cut given only in a name is not applied to a line headed by its entry.
UniProt Q9UNA4: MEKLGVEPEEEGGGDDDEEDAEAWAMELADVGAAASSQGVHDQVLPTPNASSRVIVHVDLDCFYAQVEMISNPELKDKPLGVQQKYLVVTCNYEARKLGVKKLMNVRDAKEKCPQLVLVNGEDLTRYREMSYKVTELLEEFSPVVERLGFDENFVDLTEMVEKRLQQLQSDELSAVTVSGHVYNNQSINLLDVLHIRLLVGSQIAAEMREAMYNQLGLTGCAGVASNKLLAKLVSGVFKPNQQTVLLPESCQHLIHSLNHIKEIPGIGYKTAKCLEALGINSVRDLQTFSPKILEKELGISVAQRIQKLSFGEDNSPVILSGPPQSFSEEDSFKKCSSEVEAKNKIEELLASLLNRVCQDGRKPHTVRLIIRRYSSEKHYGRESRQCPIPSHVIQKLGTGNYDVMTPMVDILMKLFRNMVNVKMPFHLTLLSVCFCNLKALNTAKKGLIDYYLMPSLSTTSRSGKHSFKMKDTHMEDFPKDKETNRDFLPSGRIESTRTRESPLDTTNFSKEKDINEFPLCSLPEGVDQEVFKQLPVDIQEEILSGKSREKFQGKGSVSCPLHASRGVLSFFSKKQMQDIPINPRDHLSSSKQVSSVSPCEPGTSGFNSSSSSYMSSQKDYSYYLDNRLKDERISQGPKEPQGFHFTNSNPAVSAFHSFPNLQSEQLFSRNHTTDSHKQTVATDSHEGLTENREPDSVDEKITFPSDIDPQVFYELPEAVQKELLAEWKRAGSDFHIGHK

Target: DNA polymerase iota (Homo sapiens) (UniProt Q9UNA4)
Assay: qHTS for Inhibitors of Polymerase Iota
Conditions: Pol iota fluorescent replication assay, 10 min; series mostly up to 115 µM
Method in brief: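 Fluorescent replication assay read twice, at 0 min and 10 min after adding 50 nM (final) substrate. Enzyme (10 nM) and compounds were first incubated 15 min at room temperature; enzyme-free buffer wells were negative controls.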
Potency is the fitted concentration of half-maximal effect.

`CCOC(=O)NC1(NC(C)C)Oc2ccccc2O1` was tested. Which Potency did it give?
The Potency was inconclusive: 3.16 µM [inhibitor, single point].

With `O=C(CCc1ccccc1)N=C1SC2CS(=O)(=O)CC2N1Cc1ccccc1` (centres undefined) as the compound, how does the Potency read?
The Potency was “inactive”.

With `COc1ccc(C)cc1NC(=O)CSc1nc2scc(C)c2c(=O)[nH]1` as the compound, how does the Potency read?
The Potency was inconclusive: 89.1 µM [inhibitor, single point].

Which Potency does the source give for `COc1cccc(/C=C/C(=O)c2ccc(NS(=O)(=O)c3ccc(C)cc3)cc2)c1` here?
The Potency was inconclusive: 56.2 µM [inhibitor, partial curve, poor fit].

For `COc1ccc(OCCNC(=O)C(Cc2c[nH]c3ccccc23)NC(C)=O)cc1` (centres undefined), which Potency is on record?
Its Potency is inconclusive: 44.7 µM [inhibitor, partial curve, poor fit].

With `COc1ccc(-c2sc3cc4c(cc3c2C#CCO)OCO4)cc1` as the compound, how does the Potency read?
The Potency was inconclusive: 12.6 µM [inhibitor, full curve, poor fit].

For `CCc1ccccc1Nc1nn2c(=O)c3ccc(C(=O)NCc4ccc(C)cc4)cc3nc2s1`, which Potency is on record?
Its Potency is “inactive”.

With `COc1ccccc1NC(=O)C(Cc1ccccc1)NS(=O)(=O)c1ccc2c(c1)CCN2C(C)=O` (centres undefined) as the compound, how does the Potency read?
Its Potency is “inactive”.

How did the Potency turn out when `O=C(NNC1=C(C(=O)C(F)(F)F)CCC1)c1ccc(Br)cc1` was run?
Its Potency is inconclusive: 79.4 µM [inhibitor, partial curve, poor fit].

With `CCCN1/C(=C2/SC(=S)N(CC)C2=O)C=Cc2ccccc21` as the compound, how does the Potency read?
Its Potency is inconclusive: 35.5 µM [inhibitor, single point].

Which Potency does the source give for `CCOCCCNC(=O)c1ccc2c(c1)NC(=O)C(CS(=O)(=O)Cc1ccc(F)cc1Cl)N2` (centres undefined) here?
The Potency was inconclusive: 0.631 µM [inhibitor, full curve, poor fit].

With `N=c1oc2cc(O)ccc2cc1C(=O)Nc1ccc(Cl)cc1` as the compound, how does the Potency read?
Its Potency is “inactive”.

With `O=C(c1ccccc1)c1ccc(OCCOCCN2CCN(Cc3ccccc3)CC2)cc1` as the compound, how does the Potency read?
The Potency was inconclusive: 25.1 µM [inhibitor, single point].

How did the Potency turn out when `O=[N+]([O-])c1cccc2nc3ccccc3c(NCCCn3ccnc3[N+](=O)[O-])c12` was run?
Its Potency is inconclusive: 89.1 µM [inhibitor, partial curve, poor fit].

Which Potency does the source give for `O=C(NC[C@H]1CCCO1)c1cccc2c1C(=O)c1ccc(-c3ccc(F)cc3OCc3ccccc3)cc1S2(=O)=O` here?
Its Potency is “inactive”.

Which Potency does the source give for `O=C1NCCCCC1NS(=O)(=O)c1ccc(Cl)cc1` (centres undefined) here?
The Potency was “inactive”.

`CCN(CC)S(=O)(=O)c1cc(-c2nn(C)c(=O)c3ccccc23)ccc1C` was tested. Which Potency did it give?
Its Potency is inconclusive: 3.16 µM [inhibitor, full curve].

How did the Potency turn out when `COc1cccc(-c2ncc3ccccc3c2COC(=O)c2ccccc2C(=O)O)c1` was run?
Its Potency is inconclusive: 35.5 µM [inhibitor, single point].

`COC(=O)/C=C1\S/C(=N/N=C/c2ccc(Cl)cc2)NC1=O` was tested. Which Potency did it give?
Its Potency is inconclusive: 89.1 µM [inhibitor, partial curve, poor fit].

With `C=CCOc1cccc(/C=C/c2nc3ccccc3c(=O)[nH]2)c1` as the compound, how does the Potency read?
The Potency was inconclusive: 39.8 µM [inhibitor, partial curve].

`CCOc1cccc(NC(=O)C2CC(=O)N(C)C(=Nc3cccc(OC)c3)S2)c1` (centres undefined) was tested. Which Potency did it give?
The Potency was inconclusive: 100 µM [inhibitor, partial curve, poor fit].

Which Potency does the source give for `O=C1C(Cl)=C(N2CCN(Cc3ccccc3)CC2)C(=O)N1Cc1ccccc1` here?
Its Potency is inconclusive: 1.58 µM [inhibitor, full curve, poor fit].

`O=C(O)COc1ccc(Br)cc1/C=N/O` was tested. Which Potency did it give?
The Potency was inconclusive: 39.8 µM [inhibitor, partial curve, poor fit].

`COc1ccc(NC(=O)NNC(=O)c2ccc(-c3ccccc3)cc2)cc1` was tested. Which Potency did it give?
The Potency was inconclusive: 56.2 µM [inhibitor, partial curve, poor fit].

For `CCOc1ccccc1N(CC(=O)N1CCCC1)S(C)(=O)=O`, which Potency is on record?
Its Potency is “inactive”.

For `CCCn1c(=O)c(C(=O)Nc2cccc(C)c2)c(O)c2ccccc21`, which Potency is on record?
Its Potency is inconclusive: 39.8 µM [inhibitor, single point].

For `Cc1ccc(-n2nc3c(=O)n(CCCC(=O)N4CCC(C(N)=O)CC4)nc(C)c3c2C)cc1`, which Potency is on record?
The Potency was inconclusive: 63.1 µM [inhibitor, single point].

With `O=C(CSc1nc2ccc([N+](=O)[O-])cc2[nH]1)c1ccc2ccccc2c1` as the compound, how does the Potency read?
The Potency was inconclusive: 112 µM [inhibitor, single point].

With `Cc1sc2nc(SCC(=O)Nc3cccc(S(N)(=O)=O)c3)[nH]c(=O)c2c1C` as the compound, how does the Potency read?
The Potency was inconclusive: 31.6 µM [inhibitor, partial curve, poor fit].

For `COc1ccc2cc(CN(CCc3ccccc3)Cc3nnnn3Cc3ccco3)c(=O)[nH]c2c1`, which Potency is on record?
The Potency was inconclusive: 28.2 µM [inhibitor, partial curve, poor fit].

For `CCOc1cc(-c2nnc(SCC(=O)NCc3ccccc3)nc2-c2ccc(OC)c(OCC)c2)ccc1OC`, which Potency is on record?
Its Potency is inconclusive: 25.1 µM [inhibitor, partial curve, poor fit].

`CCOC(=O)c1cc(CC)sc1NC(=O)Cc1ccsc1` was tested. Which Potency did it give?
Its Potency is inconclusive: 8.91 µM [inhibitor, single point].

Which Potency does the source give for `COc1ccc(C(=O)C(Cc2cc(C(C)=O)ccc2OC)N2CCCC2)cc1` (centres undefined) here?
The Potency was inconclusive: 44.7 µM [inhibitor, partial curve, poor fit].

How did the Potency turn out when `COc1ccc(C(C(=O)NCc2ccc(F)cc2)N(Cc2cccnc2)C(=O)c2snc(C(N)=O)c2N)cc1` (centres undefined) was run?
Its Potency is inconclusive: 56.2 µM [inhibitor, partial curve, poor fit].

Which Potency does the source give for `O=C(O)c1ccc(-n2ncc3c2/C(=C\c2cccc([N+](=O)[O-])c2)CC3)cc1` here?
Its Potency is inconclusive: 50.1 µM [inhibitor, partial curve].

With `CCOC(=O)c1cc2sccc2n1CC(=O)OC` as the compound, how does the Potency read?
The Potency was inconclusive: 3.98 µM [inhibitor, full curve, poor fit].

How did the Potency turn out when `Cc1ccccc1-n1nc(CSc2nc3ccccc3[nH]2)c(-c2ccccc2)c1N` was run?
Its Potency is inconclusive: 112 µM [inhibitor, single point].

`Cc1ccc(NS(=O)(=O)c2ccc(C)c(NC(=O)COc3ccccc3)c2)c(C)c1` was tested. Which Potency did it give?
The Potency was “inactive”.

With `C=C(C)C1CC=C(C)/C(=N/NC(=O)CNc2ccc(OCC)cc2)C1` (centres undefined) as the compound, how does the Potency read?
The Potency was active: 89.1 µM.

Which Potency does the source give for `Cc1nn(Cc2nc(-c3cccs3)no2)c(C)c1Br` here?
Its Potency is “inactive”.

Which Potency does the source give for `COc1ccc(S(=O)(=O)/N=C2/NC(=O)/C(=C\c3cc(OC)c(OC)cc3[N+](=O)[O-])S2)cc1` here?
Its Potency is “inactive”.

Which Potency does the source give for `COc1ccc2c(=O)c3c(=O)n(Cc4ccco4)c(-c4ccc(C)cc4)nc3oc2c1` here?
Its Potency is inconclusive: 12.6 µM [inhibitor, full curve, poor fit].

For `COc1ccc(-c2ccnc3nc(-n4cccc4)nn23)cc1`, which Potency is on record?
The Potency was inconclusive: 31.6 µM [inhibitor, partial curve, poor fit].

Which Potency does the source give for `COc1ccc(NC2CS(=O)(=O)CC2NCc2ccco2)cc1` (centres undefined) here?
The Potency was inconclusive: 22.4 µM [inhibitor, single point].

For `COc1ccccc1N1CCN(C(=O)c2cc3c(s2)CCCCC3)CC1`, which Potency is on record?
Its Potency is inconclusive: 79.4 µM [inhibitor, partial curve, poor fit].

`Cc1ccc(-n2ncc3c(N(C)Cc4ccccc4)ncnc32)cc1` was tested. Which Potency did it give?
Its Potency is “inactive”.

`Cc1ccc(-c2cc(C(=O)N/N=C/C=C/c3ccccc3)n[nH]2)s1` was tested. Which Potency did it give?
The Potency was inconclusive: 12.6 µM [inhibitor, partial curve, poor fit].

Which Potency does the source give for `O=C(CSc1ccc2nnc(-c3cccc(F)c3)n2n1)NCc1ccco1` here?
Its Potency is inconclusive: 50.1 µM [inhibitor, partial curve, poor fit].

How did the Potency turn out when `CC1=C(c2ccc(F)cc2)S(=O)(=O)N=C1N1CCC(C(=O)NCCc2ccco2)CC1` was run?
Its Potency is “inactive”.

How did the Potency turn out when `Cc1ccc(Sc2c(C)nn(C(=O)COc3ccccc3)c2C)cc1` was run?
Its Potency is “inactive”.

How did the Potency turn out when `CC(C)(C)[C@@H]1C=C(C(=O)O)[C@H](c2ccc(Cl)cc2)N1S(=O)(=O)c1ccccc1` was run?
The Potency was inconclusive: 89.1 µM [inhibitor, single point].

`Cc1nn(C(=O)c2ccccc2)c(C)c1Sc1ccc(Cl)cc1` was tested. Which Potency did it give?
The Potency was inconclusive: 100 µM [inhibitor, single point].

For `COc1cc(NC(=O)Cn2ccn(Cc3ccccc3OC)c(=O)c2=O)cc(OC)c1`, which Potency is on record?
Its Potency is “inactive”.

Which Potency does the source give for `COC(=O)c1cc2c(cc1NC(=O)c1c(C)nn(-c3ccc(C)cc3)c1-n1cccc1)OCO2` here?
The Potency was “inactive”.

`Cc1ccc(S(=O)(=O)N2CCCCC2)cc1NC(=S)NC(=O)c1ccco1` was tested. Which Potency did it give?
Its Potency is inconclusive: 1.58 µM [inhibitor, full curve, poor fit].

With `O=C(C1CC1)N1CCN(c2ccnc3cc(Cl)ccc23)CC1` as the compound, how does the Potency read?
Its Potency is inconclusive: 100 µM [inhibitor, single point].

For `CCOc1cc(-c2ccc(OC(=O)c3ccc(Cl)cc3)c(OC)c2)cc(=O)c2c(C)oc(C)c12`, which Potency is on record?
Its Potency is “inactive”.

For `COC(=O)c1c(-c2ccc(Cl)cc2)noc1N1CCN(c2cccc(OC)c2)CC1`, which Potency is on record?
The Potency was inconclusive: 100 µM [inhibitor, single point].

With `CC(=O)c1ccc(N2CCN(c3ncnc4onc(-c5ccc(Cl)cc5)c34)CC2)cc1` as the compound, how does the Potency read?
The Potency was “inactive”.

`Cc1ccc(C)n1-c1ccc(C(=O)NCC2CCCO2)cc1` (centres undefined) was tested. Which Potency did it give?
The Potency was inconclusive: 89.1 µM [inhibitor, single point].

`Cc1cc(C(=O)N2CCC(C(N)=O)CC2)c(C)o1` was tested. Which Potency did it give?
The Potency was inconclusive: 39.8 µM [inhibitor, single point].

Which Potency does the source give for `COc1cc2c(cc1NC(=O)CSc1ccccc1)oc1ccccc12` here?
The Potency was “inactive”.

For `O=C(C1CCN(C2CCN(Cc3ccc4c(c3)CCO4)CC2)CC1)N1CCOCC1`, which Potency is on record?
The Potency was inconclusive: 14.1 µM [inhibitor, partial curve, poor fit].

`Cc1ccc(-n2nc3ccc(NC(=O)/C=C/c4ccco4)cc3n2)cc1` was tested. Which Potency did it give?
Its Potency is active: 25.1 µM.
